# From patent US20080089859A1, “ADMINISTRATION OF SLEEP RESTORATIVE AGENTS” (priority 2001, published 2008)
# Test system: patients having rheumatoid arthritis
# Experiment: Heart variability data of rheumatoid arthritis patients treated with soluble TNFα receptor
# Format: in vivo, human
substance,measurement,setting,value
Etanercept,"TENSION (tension index), Mean","treatment Success group, N 20",202.60
same,"TPOWER (total power), Mean","treatment Success group, N 20",631.90
same,"VAGUS (vagus tone), Mean","treatment Success group, N 20",.1765
same,"TENSION (tension index), Mean","treatment failure group, N 21",598.05
same,"TPOWER (total power), Mean","treatment failure group, N 21",258.71
same,"VAGUS (vagus tone), Mean","treatment failure group, N 21",.1005

# No dose or concentration is given here for some results.
